The values that follow come from the supplement of paper PMC11348887.

Conditions in all cases: 5 µM; treatment: days 7-14 after plating, readout day 21
In test [1] the test system is hPSC-derived cortical neurons (WA09). Description: nucleus area z-score vs screen plate; higher = larger nuclei (more mature).
For test [2] the test system is unchanged. The experiment in a line: total neurite length per nucleus (MAP2) z-score; higher = more neurite growth.
The test system is the same in test [3]. Description: nucleus roundness z-score vs screen plate; higher = rounder nuclei (more mature).
Test [4] has the same test system. The experiment in a line: KCl-induced FOS+/EGR-1+ double-positive nuclei fraction z-score (KCl minus unstimulated); higher = stronger activity-induced IEG response.

Counter-ions that a name gives are not always drawn. This is one part of the list. Most values lie at the level of the controls, where differences are scatter.

`O=C(O)c1cccnc1` [Nicotinic Acid] displayed a nucleus area z-score in test [1] of -0.00934. Moreover, in test [2], the “total neurite length per nucleus (z-score)” value was 0.433. The same compound gave a nucleus roundness z-score in test [3] of -0.0582. Moreover, in test [4], the “KCl-induced FOS+/EGR-1+ double-positive nuclei fraction z-score” value turned out to be 1.43.

In test [1], `Cc1ccc(C(=O)Nc2cccc(C(F)(F)F)c2)cc1Nc1nc(-c2cccnc2)nc2c1cnn2C` had a nucleus area z-score of -1.71. For the same compound, the “total neurite length per nucleus (z-score)” value in test [2] is -0.0459. For the same compound, in test [3], the nucleus roundness z-score came to 0.834. Also, the “KCl-induced FOS+/EGR-1+ double-positive nuclei fraction z-score” value in test [4] is -0.251.

In test [1], `CC1(C)O[C@@H]2C[C@H]3[C@@H]4CCC5=CC(=O)C=C[C@]5(C)[C@H]4[C@@H](O)C[C@]3(C)[C@]2(C(=O)CO)O1` [Desonide] had a nucleus area z-score of 2.74. Besides, in test [2], the “total neurite length per nucleus (z-score)” value is -1.98. In test [3], this compound returned a nucleus roundness z-score of -1.53. For the same compound, the “KCl-induced FOS+/EGR-1+ double-positive nuclei fraction z-score” value in test [4] is -0.666.

Regarding `C[C@@H](Nc1cc(F)cc(F)c1)c1cc(C(=O)N(C)C)cc2c(=O)cc(N3CCOCC3)oc12`, the nucleus area z-score in test [1] is -1.73. Further, the “total neurite length per nucleus (z-score)” value in test [2] is -0.548. In test [3], this compound registered a nucleus roundness z-score of 0.225. Moreover, the “KCl-induced FOS+/EGR-1+ double-positive nuclei fraction z-score” value in test [4] was -0.128.

In the case of `C[C@H](Nc1ncnc2[nH]cnc12)c1cc2ccc(F)cc2nc1-c1ccccn1`, the nucleus area z-score in test [1] was -0.807. In test [2], the “total neurite length per nucleus (z-score)” value worked out at 0.457. The nucleus roundness z-score in test [3] came out at 0.155. For the same compound, the “KCl-induced FOS+/EGR-1+ double-positive nuclei fraction z-score” value in test [4] was -0.576.

For the compound `O=C(O)c1ccccc1O` [Salicylic acid], the nucleus area z-score in test [1] is -0.616. Further, the “total neurite length per nucleus (z-score)” value in test [2] was 0.45. The nucleus roundness z-score in test [3] was determined as 0.0424. Moreover, in test [4], the “KCl-induced FOS+/EGR-1+ double-positive nuclei fraction z-score” value is -0.381.

For the compound `CCc1cccc(CC)c1NC(=O)N1Cc2[nH]nc(NC(=O)c3ccc(N4CCN(C)CC4)cc3)c2C1`, the nucleus area z-score in test [1] is 0.521. Also, in test [2], the “total neurite length per nucleus (z-score)” value is -0.096. The compound also returned a nucleus roundness z-score in test [3] of -0.937. In test [4], the “KCl-induced FOS+/EGR-1+ double-positive nuclei fraction z-score” value is -1.46.

With `O=C(N[C@H](CO)[C@H](O)c1ccc([N+](=O)[O-])cc1)C(Cl)Cl` [Chloramphenicol], the nucleus area z-score in test [1] is -0.607. Moreover, the “total neurite length per nucleus (z-score)” value in test [2] is -0.644. Also, the nucleus roundness z-score in test [3] was -0.253. Moreover, the “KCl-induced FOS+/EGR-1+ double-positive nuclei fraction z-score” value in test [4] was 0.768.

As for `COc1ccccc1OCCNCC(O)COc1cccc2[nH]c3ccccc3c12` (stereo unspecified) [Carvedilol], the nucleus area z-score in test [1] was found to be 1.34. Further, in test [2], the “total neurite length per nucleus (z-score)” value is -0.514. In test [3], this compound returned a nucleus roundness z-score of -1.16. In test [4], the “KCl-induced FOS+/EGR-1+ double-positive nuclei fraction z-score” value turned out to be 3.71.

For `O=C(O)Cc1ccccc1Nc1c(Cl)cccc1Cl` [Diclofenac Diethylamine], in test [1], the nucleus area z-score turned out to be 0.0653. Also, the “total neurite length per nucleus (z-score)” value in test [2] was found to be 0.765. In test [3], this compound had a nucleus roundness z-score of 1.1. In addition, the “KCl-induced FOS+/EGR-1+ double-positive nuclei fraction z-score” value in test [4] stood at 1.69.

For `CC(CCc1ccc(O)cc1)NCC(O)c1ccc(O)cc1` (stereo unspecified) [Ractopamine HCl], the nucleus area z-score in test [1] was 0.44. Besides, the “total neurite length per nucleus (z-score)” value in test [2] came to 0.908. The compound also showed a nucleus roundness z-score in test [3] of 0.311. Besides, the “KCl-induced FOS+/EGR-1+ double-positive nuclei fraction z-score” value in test [4] amounted to 0.748.

`O=C(/C=C/c1ccc(O)c(O)c1)OCCc1ccccc1` [Caffeic Acid Phenethyl Ester] showed a nucleus area z-score in test [1] of -2.17. Also, the “total neurite length per nucleus (z-score)” value in test [2] turned out to be 0.45. The compound further displayed a nucleus roundness z-score in test [3] of -0.838. Also, the “KCl-induced FOS+/EGR-1+ double-positive nuclei fraction z-score” value in test [4] is -0.107.

With `C[C@@](Cc1ccc(O)c(O)c1)(NN)C(=O)O` [Carbidopa], the nucleus area z-score in test [1] was -0.172. The “total neurite length per nucleus (z-score)” value in test [2] came out at 0.7. For the same compound, the nucleus roundness z-score in test [3] was 0.874. In addition, the “KCl-induced FOS+/EGR-1+ double-positive nuclei fraction z-score” value in test [4] turned out to be 0.579.

In the case of `C[C@H]1[C@H](C)CC[C@]2(C(=O)O)CC[C@]3(C)C(=CC[C@@H]4[C@@]5(C)CC[C@H](O)C(C)(C)[C@@H]5CC[C@]43C)[C@H]12` [Ursolic Acid], the nucleus area z-score in test [1] is -0.424. Besides, in test [2], the “total neurite length per nucleus (z-score)” value is -0.758. Besides, in test [3], the nucleus roundness z-score is -0.891. Besides, the “KCl-induced FOS+/EGR-1+ double-positive nuclei fraction z-score” value in test [4] is -0.542.
